The assay in a line: qHTS Assay to Find Inhibitors of Chronic Active B-Cell Receptor Signaling. The note with it: ABC-DLBCL IkBa-CBG/CBR reporter, luminescence ratio (green luciferase fused to IkBa over red control in TMD8 lymphoma cells), 4 h. The gist of the method:
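TMD8 ABC-DLBCL cells carrying doxycycline-inducible green luciferase fused to IkappaBalpha plus unfused red luciferase were exposed to compounds (up to 46 uM) for 4 hrs at 37C. Activity came from the overlap-corrected green/red luminescence ratio.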
In general terms: qHTS replaces the single test concentration by a dilution series.

Where [1] appears, read: measured here: CBR red luminescence, cell number.
Where [2] appears, read: measured here: IkBa-CBG green luminescence.

The other results are listed elsewhere or left out. The main result of the screen is listed elsewhere. These columns were measured beside it and carry no call. The list favours compounds with an active or inconclusive main result. The note in brackets gives the kind of curve behind each potency; many fits are weak.

Usually AC50 stands for the midpoint of the concentration-response curve, whichever way the signal moves. Take `CSCCC(NS(=O)(=O)/C=C/c1ccccc1)C(=O)O` (stereo unspecified): the AC50 under setting [1] is 6.31 µM [rising, single point].

In the case of `O=C(CSc1nc2ccccc2s1)Nc1nccs1`, the AC50 under setting [1] is 31.6 µM [falling, single point].

With `CN1C2CCC1CC(OC(c1ccccc1)c1ccccc1)C2` (stereo unspecified), the AC50 under setting [1] was 3.98 µM [rising, single point].

As to `Cc1ccc(NC(=S)NCC(C)CSc2ccc(Cl)cc2)cc1` (stereo unspecified), the AC50 under setting [1] was 35.5 µM [falling, single point].

`O=C(Cn1cnc2cc([N+](=O)[O-])ccc2c1=O)N(Cc1ccccc1)C1CCS(=O)(=O)C1` (stereo unspecified): the AC50 under setting [1] was 8.91 µM [falling, partial curve, poor fit].

Turning to `O=C(NNC(=O)c1cccs1)c1ccc(Br)cc1`, under setting [1], the AC50 was 35.5 µM [falling, single point].

`Cc1noc(C)c1S(=O)(=O)N1CCC(C(=O)N2CCN(Cc3ccc4c(c3)OCO4)CC2)CC1`: the AC50 under setting [1] was 29.1 µM [falling, single point].

On to `COc1ccc(C2CC(=O)Oc3cc(O)ccc32)cc1` (stereo unspecified), for which the AC50 under setting [1] is 29.1 µM [rising, single point].

Turning to `Cc1cc(NC(=O)Cn2nnc(-c3ccccc3N)n2)no1`, the AC50 under setting [1] is 32.6 µM [rising, single point].

As to `CC1(C)CC(=O)C(C=NCCN2CCN(C(=O)C34CC5CC(CC(C5)C3)C4)CC2)=C(O)C1`, under setting [1], the concentration at half-maximal activity (AC50) was 29.1 µM [rising, single point].

For `Cc1ccc(NC(=O)C(Nc2cccc(C)c2)c2ccccc2)cc1` (stereo unspecified), the AC50 under setting [1] was 29.1 µM [falling, single point].

As for `Cc1ccc(C2CC(c3cccs3)=NN2C(=O)c2ccc(Br)o2)cc1` (stereo unspecified), under setting [1], the AC50 was 0.082 µM [falling, full curve, poor fit].

Take `O=C(O)c1cccc(-n2cccc2/C=C/[N+](=O)[O-])c1`: the AC50 was 35.5 µM [falling, single point] under setting [1] and 35.5 µM [rising, partial curve, poor fit] under setting [2].

Take `O=C(Nc1nnc(-c2ccc(Br)cc2)o1)c1cccc(N2C(=O)CCC2=O)c1`: under setting [1], the concentration at half-maximal activity (AC50) is 1.3 µM [falling, partial curve, poor fit].

On to `CCCC(=O)Nc1ccc(C(=O)Nc2cccc(OC)c2)cc1`, for which the AC50 under setting [2] is 3.26 µM [rising, partial curve, poor fit].

Regarding `Cc1ccc(-c2cc(C(=O)Nc3ccc(S(=O)(=O)Nc4onc(C)c4C)cc3)[nH]n2)c(O)c1`, the AC50 under setting [1] was 10 µM [falling, partial curve].

For the compound `Brc1ccccc1-c1nnc(COc2ncnc3c2cnn3-c2ccccc2)o1`, the concentration at half-maximal activity (AC50) under setting [1] is 0.316 µM [falling, full curve, poor fit].

Turning to `C/C(=N\NC(=O)c1ccc2c(c1)OCO2)c1ccc(O)cc1`, under setting [1], the AC50 is 17.8 µM [falling, partial curve, poor fit].

As to `CCN1CC=C2C(C#N)=C(N)C(C#N)(C#N)C(CCc3ccccc3)C2C1` (stereo unspecified), the AC50 under setting [1] was 5.62 µM [rising, single point].

`COc1ccccc1CN1CCC(CNS(=O)(=O)c2cc(-c3cc(C)no3)ccc2C)CC1`: under setting [1], the AC50 is 15.8 µM [falling, single point].

Turning to `COc1ccc(N(CC(=O)Nc2ccc3c(c2)OCO3)S(C)(=O)=O)c(OC)c1`, the AC50 under setting [1] is 11.2 µM [rising, single point].

With `COC(=O)c1ccc2c(=O)n(CCN3CCOCC3)c(=S)[nH]c2c1`, the AC50 under setting [1] is 2.31 µM [rising, partial curve, poor fit].

With `CCOc1ccc(/C=N/NC(=O)C(=O)N2CCCCCC2)c2ccccc12`, under setting [1], the AC50 was 35.5 µM [falling, single point].

For `CNc1nc2c(N)ncnc2n1[C@H]1O[C@@H](CO)[C@H](O)[C@@H]1O`, the concentration at half-maximal activity (AC50) under setting [2] is 3.55 µM [falling, partial curve, poor fit].

For the compound `COC(=O)c1ccc(NC(=O)CCc2nnc3ccc(N4CCC5(CC4)OCCO5)nn23)cc1`, the AC50 under setting [1] is 0.501 µM [rising, full curve, poor fit].

As to `COC(=O)c1nc(N)sc1-c1ccc(Cl)cc1`, the AC50 under setting [1] is 2.82 µM [rising, partial curve, poor fit].

Consider `CC(C)CN1C(=O)c2ccccc2C1(O)Cc1ccccc1` (stereo unspecified), for which the AC50 under setting [1] was 23.1 µM [rising, single point].

`O=C(N/N=C/c1sc2ccccc2c1O)c1ccccc1`: under setting [1], the AC50 was 3.26 µM [falling, full curve].

For `O=C(N=C1N=C2C=CC=CN2Cc2ccccc21)c1ccc(S(=O)(=O)N2CCOCC2)cc1`, the AC50 under setting [2] is 11.2 µM [rising, partial curve, poor fit].

In the case of `COc1cc2c(cc1OC)C(C)N(C(=O)c1cc3c(s1)-c1c(C)cccc1OC3)CC2` (stereo unspecified), under setting [1], the half-maximal activity concentration (AC50) was 29.1 µM [falling, single point].

Regarding `CCOC(=O)C(NC(=O)c1ccccc1Cl)(Nc1sc2c(c1C(N)=O)CCC2)C(F)(F)F` (stereo unspecified), the AC50 under setting [1] is 29.1 µM [falling, single point].

In the case of `NS(=O)(=O)c1ccc(CCNC(=O)c2ccc(C(=O)c3ccccc3)cc2)cc1`, the AC50 under setting [1] is 2 µM [falling, full curve, poor fit].

On to `Cn1c(=O)n(C)c2cc(C(=O)c3ccccc3)ccc21`, for which the AC50 under setting [1] was 29.1 µM [falling, single point].

For `CNC(=O)C1CC(=O)N(CCc2ccc(OC)cc2)C(=Nc2ccc(OC)cc2)S1` (stereo unspecified), under setting [1], the AC50 is 29.1 µM [rising, single point].

As to `COc1cccc(NC(=O)[C@H](CC(C)C)NC(=O)N2CCn3c2nc2ccccc23)c1`, the AC50 under setting [1] was 11.2 µM [falling, partial curve].

In the case of `Cc1ccc(NC(=O)COC(=O)C2CC(=O)N(Cc3ccccc3)C2)cc1S(=O)(=O)N(C)C` (stereo unspecified), the AC50 under setting [1] was 12.6 µM [rising, single point].

Consider `COc1ccccc1-c1nnc(NC(=O)c2ccc3c(c2)OCO3)s1`, for which the AC50 under setting [1] was 0.2 µM [falling, full curve, poor fit].

Take `NC(=O)c1ccsc1NC(=O)COC(=O)c1ccc(Cl)cc1`: the AC50 under setting [1] was 9.2 µM [falling, partial curve, poor fit].

In the case of `O=C(CCC(=O)c1cccs1)NCc1cccc(Cl)c1`, under setting [1], the AC50 is 5.17 µM [rising, single point].

With `CC(C)CCn1c(-c2nonc2N)nc2ccccc21`, the AC50 under setting [2] was 16.4 µM [rising, single point].

These data come from PubChem BioAssay AID493014 (National Center for Advancing Translational Sciences (NCATS), 2011).
